Data on 42 sequences can be found in publication PMC7819943, “Rice protein-binding microarrays: a tool to detect cis-acting elements near promoter regions in rice”.

By UniProt entry, the sequences of proteins in these tests, tags left out.
UniProt Q0JBA9, entry or part of it: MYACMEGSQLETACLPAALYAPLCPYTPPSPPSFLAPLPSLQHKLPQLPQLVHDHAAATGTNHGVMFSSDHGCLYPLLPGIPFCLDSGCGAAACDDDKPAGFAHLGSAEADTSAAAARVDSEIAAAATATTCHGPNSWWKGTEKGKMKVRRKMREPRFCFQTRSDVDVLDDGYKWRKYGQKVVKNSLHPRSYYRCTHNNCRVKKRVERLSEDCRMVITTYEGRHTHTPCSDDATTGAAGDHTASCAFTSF

The list shows a part of the results.

The assay has as its target OsWRKY34 (Oryza sativa, UniProt Q0JBA9 1-250). Description: protein-binding microarray (RPBM); PBS, 2% BSA, 51.3 ng/ul salmon testes DNA, 50 uM zinc acetate, 200 nM TF, 25 C, 1 h; high values mean tight binding. As to conditions: protein: recombinant; tags: N-terminal polyhistidine and DsRed monomer fusion (pET32a); label: CyDye5-dUTP incorporated in the synthesized complementary strand; 3' TTTTT single-stranded linker to array surface; dsDNA, one strand shown. The procedure, abridged:
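In PBS with 2% BSA, salmon testes DNA and 50 µM zinc acetate, 200 nM protein was incubated on a custom Agilent array at 25 °C for 1 h and then washed off. The array had been made double-stranded by primer extension with Cy5-dUTP and blocked with 2% BSA. The proteins were transcription factors fused N-terminally to polyhistidine and DsRed, expressed in E. coli BL21-CodonPlus and purified on Ni–NTA. The binding signal is per-feature fluorescence intensity (arbitrary units) from an Axon 4000B scanner.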
With “CTTATACTACTCCTATGTGCTAATACGGTCGCAGGGAAAACGGAGTCACCTAGTGCAG”, the binding signal was 9760 fluorescence intensity (a.u.). With “CAAGTCTCAACGTTCTCAACGTTGACCGTATAGCGATTCGCGGAGTCACCTAGTGCAG” the figure was 9640 fluorescence intensity (a.u.).

Take “CTGCTACAGCTTTACAACTCTATGGCCGTCTCTATATAAGCGGAGTCACCTAGTGCAG”: the binding signal is 8070 fluorescence intensity (a.u.).

For “GGCCTTAGGGAGATGCTGGTTTTTGCTAATATGGCTCTTTCGGAGTCACCTAGTGCAG”, the binding signal is 9810 fluorescence intensity (a.u.).

As for “GTGCGTTGTGTGGTTGGTTGGTCAGTGTCTGGGTGGTCACCGGAGTCACCTAGTGCAG”, the binding signal was 11400 fluorescence intensity (a.u.). Under “CGTGGTTGTGTGTGTGATTGCAGAAAAAAAAAAATCCTATCGGAGTCACCTAGTGCAG” stands 8610 fluorescence intensity (a.u.); under “CCCGGCCTTGTTCGCGCTGTTCCTATAAACTCCCACTGACCGGAGTCACCTAGTGCAG”, 10000 fluorescence intensity (a.u.); under “TTTCTTTCATTTGTTGGCTACGACTTCCTTCTGCTCCTCTCGGAGTCACCTAGTGCAG”, 8450 fluorescence intensity (a.u.). With “TTACCCGAGAGACGCCACCTCACCGCACCCCGTCTCACAGCGGAGTCACCTAGTGCAG” the figure was 11900 fluorescence intensity (a.u.); with “ACATTTACTTGTTGCAATGTACGTGTATTTTTTCTAGTAACGGAGTCACCTAGTGCAG”, 10300 fluorescence intensity (a.u.); with “TGTGGGTTTTAGCTTTTGCAGCCCGGATCGTTGACCCTTCCGGAGTCACCTAGTGCAG”, 11400 fluorescence intensity (a.u.). Under “AGAGCTAGAACACCACTTGATTACCAGCTACGTACCCTAACGGAGTCACCTAGTGCAG” stands 8410 fluorescence intensity (a.u.); under “TGCACCACCACTGTGCGCGTCTCCCGCCTCTTGCGCTCTCCGGAGTCACCTAGTGCAG”, 8770 fluorescence intensity (a.u.); under “GCCGTTAACTTTTTTAAATATGTTTGACCGTTCGTCTTATCGGAGTCACCTAGTGCAG”, 10800 fluorescence intensity (a.u.). On to “TTTCACTTTATCTGTGTATGTGATTCAACAAGTTGTTGACCGGAGTCACCTAGTGCAG”, for which the binding signal was 9160 fluorescence intensity (a.u.). Regarding “TGAGTCCTTACCTCTCTCTCTCCAATGTTCGTCTGCGGCACGGAGTCACCTAGTGCAG”, the binding signal is 8390 fluorescence intensity (a.u.). With “TTATGTTTCTACCTGCCATCCAGTTTCGTTCTCAAGTTTTCGGAGTCACCTAGTGCAG” the figure was 13800 fluorescence intensity (a.u.); with “CCATAGAAGTTGTGGTTGGTTTATGTTTTTCACATGTTCTCGGAGTCACCTAGTGCAG”, 15200 fluorescence intensity (a.u.). With “AAGAAATCTCTTTGAAAAACTTGCATGCTAACTTGAGACGCGGAGTCACCTAGTGCAG” the figure was 44900 fluorescence intensity (a.u.). Under “AGATATATCCTGCATTCTCTTTGGTGGCATGCAAACTCAACGGAGTCACCTAGTGCAG” stands 8310 fluorescence intensity (a.u.); under “TGTTAATTATTTTTCTATCATGATGCTATATCATTTTAATCGGAGTCACCTAGTGCAG”, 9190 fluorescence intensity (a.u.). Consider “GTTTTTGCAGGGAAGTCAGTTGCAACGCCGGCCATTTCATCGGAGTCACCTAGTGCAG”, for which the binding signal is 9260 fluorescence intensity (a.u.). With “CGGGGCGGGCTAACAAGAAGGTAGGATTGGATGGATATAGCGGAGTCACCTAGTGCAG” the figure was 10700 fluorescence intensity (a.u.); with “AGCCGCAGAGTTCTTCATGGGCGGGATGGCAGTTCTTACTCGGAGTCACCTAGTGCAG”, 11900 fluorescence intensity (a.u.). With “GAGGGCGGCTATGGGGTTGTTTACCACGGTCGTCTTATAACGGAGTCACCTAGTGCAG” the figure was 9060 fluorescence intensity (a.u.); with “TCAGATATAGCTGGCTGTAGAATTCACCACTTGATCAATTCGGAGTCACCTAGTGCAG”, 8060 fluorescence intensity (a.u.); with “AGCTTTCATGATCTTTTTCTGTCTATTTCGCTTGCACTCTCGGAGTCACCTAGTGCAG”, 14600 fluorescence intensity (a.u.). Under “CACATTTGCGCTTTCCGACGCCTTTGCTGCGCGACTCGTTCGGAGTCACCTAGTGCAG” stands 10700 fluorescence intensity (a.u.). As to “CATATTTTGTTTTAACTTTTTAGTCTTTTATTTTTTTTATCGGAGTCACCTAGTGCAG”, the binding signal was 9800 fluorescence intensity (a.u.). Under “ATCTCCACCATCGCCGTCGCCGTCGCCTCGCCTCGTCACGCGGAGTCACCTAGTGCAG” stands 8990 fluorescence intensity (a.u.). Under “AGCTAGTAAGATCTGTCTGGTGTCAATTGTTGTCGTTTGCCGGAGTCACCTAGTGCAG” stands 8920 fluorescence intensity (a.u.). Under “TCAACCACGATCAACCTTCCACATCTGCAGAAACCGATTTCGGAGTCACCTAGTGCAG” stands 9450 fluorescence intensity (a.u.); under “TGTAGTACTACTACTGTTTTTCCTCTGTAACCACATGCTTCGGAGTCACCTAGTGCAG”, 8480 fluorescence intensity (a.u.); under “ATGGTAGGTTTTAAGTTTTCACCGTATACATAGTTTTCACCGGAGTCACCTAGTGCAG”, 9460 fluorescence intensity (a.u.). “TGATGCCGTTATTGTTCGAGTTCATGGCTTGTTAGATCTACGGAGTCACCTAGTGCAG”: the binding signal is 9220 fluorescence intensity (a.u.). “CCTCCATTAGTCCGACGCATTCTGCATTTTGTACACATTACGGAGTCACCTAGTGCAG”: the binding signal was 8260 fluorescence intensity (a.u.).

Regarding “CGCATGCGTGCATGGATCTCCGCGCTCGTTGACTGACCTGCGGAGTCACCTAGTGCAG”, the binding signal was 8990 fluorescence intensity (a.u.). With “GTGGGGATTGGGTAGGAGAAGGAGTGGGGAATTAGGTTAGCGGAGTCACCTAGTGCAG” the figure was 12200 fluorescence intensity (a.u.); with “GTTCTCGTCGTTCGTGTTCTTCTGCTTCGGTTTCGTGGTGCGGAGTCACCTAGTGCAG”, 11900 fluorescence intensity (a.u.). With “GTGACATTGCAATTTCTGGTCTCGGGTGGGTTGCGGTTGACGGAGTCACCTAGTGCAG” the figure was 15600 fluorescence intensity (a.u.). Under “CGGACAAGGACAAGCCTTGCTCGGTGGGTGGTTGGGGATACGGAGTCACCTAGTGCAG” stands 10900 fluorescence intensity (a.u.).

“GCACCTCCGGCAACTCCGATTACGGCGGCATCGGGGCGGGCGGAGTCACCTAGTGCAG”: the binding signal is 8810 fluorescence intensity (a.u.).
